From article doi:10.1101/2020.05.08.084418

Tests used:
[1] = molecular target: MV-C fused downstream of the Nluc2 fragment of Nanoluciferase (pSNL-N2-C) (Measles virus); assay: split reporter
[2] = molecular target: MV-C tagged N-terminally with Nano-Luciferase (Nluc-C) (Measles virus, Schwarz vaccine strain); assay: FRET or BRET
[3] = molecular target: MV-C tagged C-terminally with Nano-Luciferase (C-Nluc) (Measles virus, Schwarz vaccine strain); assay: FRET or BRET

B1: iASPP fused downstream of the Nluc1 fragment of Nanoluciferase (pSNL-N1) (protein, UniProt Q8WUF5 1-828)
chain: MDSEAFQSARDFLDMNFQSLAMKHMDLKQMELDTAAAKVDELTKQLESLWSDSPAPPGPQAGPPSRPPRYSSSSIPEPFGSRGSPRKAATDGADTPFGRSESAPTLHPYSPLSPKGRPSSPRTPLYLQPDAYGSLDRATSPRPRAFDGAGSSLGRAPSPRPGPGPLRQQGPPTPFDFLGRAGSPRGSPLAEGPQAFFPERGPSPRPPATAYDAPASAFGSSLLGSGGSAFAPPLRAQDDLTLRRRPPKAWNESDLDVAYEKKPSQTASYERLDVFARPASPSLQLLPWRESSLDGLGGTGKDNLTSATLPRNYKVSPLASDRRSDAGSYRRSLGSAGPSGTLPRSWQPVSRIPMPPSSPQPRGAPRQRPIPLSMIFKLQNAFWEHGASRAMLPGSPLFTRAPPPKLQPQPQPQPQPQSQPQPQLPPQPQTQPQTPTPAPQHPQQTWPPVNEGPPKPPTELEPEPEIEGLLTPVLEAGDVDEGPVARPLSPTRLQPALPPEAQSVPELEEVARVLAEIPRPLKRRGSMEQAPAVALPPTHKKQYQQIISRLFHRHGGPGPGGPEPELSPITEGSEARAGPPAPAPPAPIPPPAPSQSSPPEQPQSMEMRSVLRKAGSPRKARRARLNPLVLLLDAALTGELEVVQQAVKEMNDPSQPNEEGITALHNAICGANYSIVDFLITAGANVNSPDSHGWTPLHCAASCNDTVICMALVQHGAAIFATTLSDGATAFEKCDPYREGYADCATYLADVEQSMGLMNSGAVYALWDYSAEFGDELSFREGESVTVLRRDGPEETDWWWAALHGQEGYVPRNYFGLFPRVKPQRSKV
binding [1]: binds

B2: iASPP fused to EYFP (iASPP-YFP) (protein, UniProt Q8WUF5 1-828)
chain: MDSEAFQSARDFLDMNFQSLAMKHMDLKQMELDTAAAKVDELTKQLESLWSDSPAPPGPQAGPPSRPPRYSSSSIPEPFGSRGSPRKAATDGADTPFGRSESAPTLHPYSPLSPKGRPSSPRTPLYLQPDAYGSLDRATSPRPRAFDGAGSSLGRAPSPRPGPGPLRQQGPPTPFDFLGRAGSPRGSPLAEGPQAFFPERGPSPRPPATAYDAPASAFGSSLLGSGGSAFAPPLRAQDDLTLRRRPPKAWNESDLDVAYEKKPSQTASYERLDVFARPASPSLQLLPWRESSLDGLGGTGKDNLTSATLPRNYKVSPLASDRRSDAGSYRRSLGSAGPSGTLPRSWQPVSRIPMPPSSPQPRGAPRQRPIPLSMIFKLQNAFWEHGASRAMLPGSPLFTRAPPPKLQPQPQPQPQPQSQPQPQLPPQPQTQPQTPTPAPQHPQQTWPPVNEGPPKPPTELEPEPEIEGLLTPVLEAGDVDEGPVARPLSPTRLQPALPPEAQSVPELEEVARVLAEIPRPLKRRGSMEQAPAVALPPTHKKQYQQIISRLFHRHGGPGPGGPEPELSPITEGSEARAGPPAPAPPAPIPPPAPSQSSPPEQPQSMEMRSVLRKAGSPRKARRARLNPLVLLLDAALTGELEVVQQAVKEMNDPSQPNEEGITALHNAICGANYSIVDFLITAGANVNSPDSHGWTPLHCAASCNDTVICMALVQHGAAIFATTLSDGATAFEKCDPYREGYADCATYLADVEQSMGLMNSGAVYALWDYSAEFGDELSFREGESVTVLRRDGPEETDWWWAALHGQEGYVPRNYFGLFPRVKPQRSKV
binding [2]: binds | binding [3]: binds

No constants are given. Whether binding was seen depends on the method and setting. Binding seen in cells or lysates may run through a third protein. Binding can be weak; no strength is given. Sequences can lack the tags named with a protein.
